Measurements taken from PubChem BioAssay AID1259415 (National Center for Advancing Translational Sciences (NCATS), 2018).
Out of some 410,000 compounds screened, about 18,000 (4.4%) were called active. This list was built around the results that the source calls inconclusive (neither active nor inactive); the mix of calls is not that of the screen. No stated cut-off is given here; in the data, active means activity change below about -60%; inconclusive means no clear call, values can overlap the other calls; inactive means above about -39%.

Assay: qHTS Assay for inhibitors of the human cytomegalovirus (HCMV)
Conditions: HFF cells, HCMV-luciferase reporter, 72 h; at 57.5 µM; stronger effect = lower value
How it was run: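 HFF cells seeded 16 h at 37C, treated with compounds, infected with luciferase-reporter HCMV at MOI 1 PFU/cell; luciferase read at 72 h post infection, normalized to buffer-only and Salinomycin controls.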
On the % scale 0 is the no-effect control and ±100 the full control effect.

| Compound | activity change, negative = inhibition |
| --- | --- |
| c1nc2sc3c(c2c2nnnn12)CCC3 | inconclusive: -52.3% |
| CC(=O)c1cc2c(cc1NS(=O)(=O)c1ccc3c(c1)OCCO3)OCO2 | inconclusive: -49.9% |
| CCN(C(=O)C1CCCN(c2ncnc3c2nc2n3CCCCC2)C1)c1cccc(C)c1 (stereo unspecified) | inconclusive: -49.3% |
| CC(NC(=O)Cc1ccccc1F)c1ccc(F)cc1 (stereo unspecified) | inconclusive: -43.5% |
| COCCNC(=O)c1cc(-c2ccccc2)n(Cc2cc(C)no2)n1 | inconclusive: -41.6% |
| CC1=C(C(=O)Nc2cc(C(=O)N3CCN(c4ccc(Cl)cc4)CC3)ccc2C)SCCO1 | inconclusive: -47% |
| COc1cccc(-c2csc(N3CCN(C(=O)Nc4ccc(Cl)cc4)CC3)n2)c1 | inconclusive: -47.3% |
| Cc1cc(C)cc(NC(=O)CNS(=O)(=O)c2ccc3nc(C)sc3c2)c1 | inconclusive: -59.3% |
| COC(=O)c1ccc(NC(C)C(=O)OC)c([N+](=O)[O-])c1 (stereo unspecified) | inconclusive: -51.6% |
| CC(Sc1nnc(-c2ccccc2)c(-c2ccccc2)n1)C(=O)Nc1ncc(Cl)cc1Cl (stereo unspecified) | inconclusive: -41.8% |
| C=CCNC(=O)c1ccc2c3n(nc2c1)-c1ccccc1CO3 | inactive: 54.8% |
| O=S(=O)(NC1C2CC3CC(C2)CC1C3)c1ccccc1 (stereo unspecified) | inconclusive: -42.5% |
| CC1=C(C(=O)N(C)C)C(c2ccc(N3CCOCC3)cc2)NC(=O)N1 (stereo unspecified) | inconclusive: -42.1% |
| CCS(=O)(=O)Nc1ccc(Cc2ccc(NS(=O)(=O)CC)cc2)cc1 | inconclusive: -47.9% |
| Cc1cc(C)c(C)c(S(=O)(=O)ON2C(=O)c3ccccc3C2=O)c1C | active: -75.5% |
| CCN(CC)C(=O)CSc1nnc2nnc3cc(C)ccc3n12 | active: -66.8% |
| Cc1cc(N2CCOCC2)nc2ccc(NC(=S)N3CCN(c4ccccc4)CC3)cc12 | inconclusive: -40% |
| COc1cc(/C=C/C(=O)Nc2ccc(N3CCCCC3)c(S(=O)(=O)Nc3ccccc3Cl)c2)cc(OC)c1OC | inconclusive: -47.3% |
| CC(Sc1nc(-c2ccccc2)cc(C(F)(F)F)n1)C(=O)N1CCCC1 (stereo unspecified) | inactive: -15.4% |
| Cn1nc([N+](=O)[O-])nc1Oc1ccccc1F | inactive: 0% |
| CC(C)CCN1CCC(CN2C(=O)C(=O)NC[C@@H]2Cc2ccccc2)CC1 | inactive: -7.94% |
| COc1ccc(NC(=S)NC2CC3CCCC(C2)N3C2CC2)cc1 (stereo unspecified) | inconclusive: -48.8% |

11 structures from above, arranged by number of heavy atoms, smallest number first.

| Compound | activity change, negative = inhibition |
| --- | --- |
| c1nc2sc3c(c2c2nnnn12)CCC3 | inconclusive: -52.3% |
| Cn1nc([N+](=O)[O-])nc1Oc1ccccc1F | inactive: 0% |
| COC(=O)c1ccc(NC(C)C(=O)OC)c([N+](=O)[O-])c1 (stereo unspecified) | inconclusive: -51.6% |
| CCN(CC)C(=O)CSc1nnc2nnc3cc(C)ccc3n12 | active: -66.8% |
| COc1ccc(NC(=S)NC2CC3CCCC(C2)N3C2CC2)cc1 (stereo unspecified) | inconclusive: -48.8% |
| COCCNC(=O)c1cc(-c2ccccc2)n(Cc2cc(C)no2)n1 | inconclusive: -41.6% |
| CC(Sc1nc(-c2ccccc2)cc(C(F)(F)F)n1)C(=O)N1CCCC1 (stereo unspecified) | inactive: -15.4% |
| CC(C)CCN1CCC(CN2C(=O)C(=O)NC[C@@H]2Cc2ccccc2)CC1 | inactive: -7.94% |
| COc1cccc(-c2csc(N3CCN(C(=O)Nc4ccc(Cl)cc4)CC3)n2)c1 | inconclusive: -47.3% |
| CC1=C(C(=O)Nc2cc(C(=O)N3CCN(c4ccc(Cl)cc4)CC3)ccc2C)SCCO1 | inconclusive: -47% |
| COc1cc(/C=C/C(=O)Nc2ccc(N3CCCCC3)c(S(=O)(=O)Nc3ccccc3Cl)c2)cc(OC)c1OC | inconclusive: -47.3% |

Remaining list, next part:

| Compound | activity change, negative = inhibition |
| --- | --- |
| COc1ccc2[nH]c(C(=O)NCCCN3CCCC3=O)c(C)c2c1 | inconclusive: -54.9% |
| Cc1cccn2c(=O)c3cc(C(=O)NC4CCS(=O)(=O)C4)n(Cc4ccccc4)c3nc12 (stereo unspecified) | inconclusive: 0% |
| C=CCSc1nnc(-c2nnc(SCC=C)n2CC)n1CC | inactive: -31.7% |
| C(=N\Nc1nc(Nc2ccccc2)nc(Nc2ccccc2)n1)/c1ccncc1 | inconclusive: -57.5% |
| O=C(CN(c1cccc(Br)c1)S(=O)(=O)c1ccccc1)N/N=C/c1cc([N+](=O)[O-])ccc1O | active: -93.6% |
| COc1cc(OC)cc(C(=O)NNC(=O)CN2C(=O)NC(C)(c3ccc(C)cc3)C2=O)c1 (stereo unspecified) | inactive: -17.6% |
| O=C(NCc1cccc(Cl)c1)C1CCCN(c2ncnc3c2nc2n3CCCCC2)C1 (stereo unspecified) | active: -66.7% |
| CCN(CC)C(=O)CSc1nc2cc3c(cc2c(=O)n1Cc1ccc(OC)cc1)OCO3 | inconclusive: -49.9% |
| O=S(=O)(c1ccc(-c2csc(=Nc3ccc(OC(F)(F)Cl)cc3)n2CCCO)cc1)N1CCCC1 | active: -100% |
| CCCCNC(=S)Nc1ccc(OC)nc1 | inactive: 26.7% |
| CCOC(=O)[C@]12CCCC=C1N(CCC1=CCCCC1)C(=O)[C@H](CC(=O)NCc1cccc3ccccc13)C2 | inconclusive: -47.8% |
| O=C1NC(=Nc2ccc(Cl)cc2)SC1Cc1cccc(Cl)c1Cl (stereo unspecified) | active: -64.5% |
| Cc1ccc2nc(-c3ccccc3)nn2c1 | inactive: 14.4% |
| NC(=O)c1c(NC(=O)c2ccc(F)cc2)sc2c1CCC2 | inactive: 76.9% |
| O=C(C[n+]1ccc(Cc2ccccc2)cc1)Nc1ccccc1 | inconclusive: -57.3% |
| O=C(COc1ccc(-c2ccccc2)cc1)N1CCN(C(=O)c2cccs2)CC1 | inconclusive: -47% |
| NS(=O)(=O)c1ccc(CCNC(=O)c2cnc(Cl)c(Cl)c2)cc1 | inconclusive: -41% |
| C/C(=N\N1CCN(c2ccc(Cl)cc2)CC1)c1cccc([N+](=O)[O-])c1 | inconclusive: -53.6% |
| COc1ccc(C(=O)Nc2ccc3oc(-c4ccc5ccccc5c4)nc3c2)cc1Br | inconclusive: -42.4% |
| O=[N+]([O-])c1cc2c(c([N+](=O)[O-])c1)Nc1ccccc1O2 | inconclusive: -56.8% |
| Cn1c(=O)oc2cc(S(=O)(=O)N3CCCC(C(=O)NCc4cccs4)C3)ccc21 (stereo unspecified) | inconclusive: -55% |

2 compounds drawn at random from those above, as already listed:

| Compound | activity change, negative = inhibition |
| --- | --- |
| O=C(CN(c1cccc(Br)c1)S(=O)(=O)c1ccccc1)N/N=C/c1cc([N+](=O)[O-])ccc1O | active: -93.6% |
| COc1ccc(C(=O)Nc2ccc3oc(-c4ccc5ccccc5c4)nc3c2)cc1Br | inconclusive: -42.4% |

Further results follow:

| Compound | activity change, negative = inhibition |
| --- | --- |
| COc1ccc(NC(=O)/C(C#N)=C\c2cc(C)n(-c3ccc4c(c3)OCO4)c2C)cc1 | inconclusive: -51.9% |
| CCOc1ccccc1CNC(=O)Cn1ccc2cc(S(=O)(=O)N3CCCCCC3)ccc21 | inconclusive: -40.1% |
| C#Cc1ccc([C@@H]2C=C(C(=O)NC3CC3)O[C@H](OCCCCO)C2)cc1 | inactive: -5.79% |
| Cc1cc(C)c(NC(=S)NCCO)c(C)c1 | inconclusive: -44.9% |
| CC(C)CNC(=O)c1oc2ccccc2c1COc1ccccc1 | inconclusive: -55.7% |
| COc1cc(Cl)c(C)cc1NC(=O)CSc1nc2c(c(=O)[nH]1)CCCC2 | inactive: -7.43% |
| COc1ccc(-c2nc(C)c(CCNC(=O)c3c(F)cccc3F)s2)cc1 | inactive: 12.8% |
| CC1Cc2cc(/C(O)=C3/C(=O)C(=O)N(CCN4CCOCC4)C3c3ccc([N+](=O)[O-])cc3)ccc2O1 (stereo unspecified) | inconclusive: -47.9% |
| COc1ccc(CN2CCC(C(=O)c3cccc(Cl)c3)CC2)cc1 | inactive: -8.24% |
| O=C(N/N=C/c1cccc(Oc2ccc([N+](=O)[O-])cc2[N+](=O)[O-])c1)c1cncc(Br)c1 | inconclusive: -52.9% |
| O=C(CN1CCN(Cc2ccc(Cl)cc2)C1=O)NCCCN1CCN(c2ccc(F)cc2)CC1 | active: -75.4% |
| O=C(CSc1nnc2scc(-c3ccccc3)n12)NCc1ccco1 | inconclusive: -40% |
| COc1ccc(OC)c(NC(=O)CSC2=Nc3ccccc3C3=NC(CC(=O)NCc4ccc(F)cc4)C(=O)N23)c1 (stereo unspecified) | active: -67.3% |
| CCOP(=O)(OCC)C(NC(=O)Nc1c(C)cc(C)cc1C)c1ccccc1 (stereo unspecified) | inconclusive: -41.2% |
| O=C(OCCNc1nc(-c2ccccc2)nc2ccccc12)c1ccncc1 | inconclusive: -45.5% |
| O=C(Nc1ccc(S(=O)(=O)Nc2ccccc2)cc1)c1ccc(CN2CCOCC2)cc1 | active: -89.8% |
| COC(=O)C1C(c2ccc(Cl)cc2)CC2CCC1N2C (stereo unspecified) | inconclusive: -46.9% |
| COCCN(CC(=O)Nc1cccc(C)c1C)C(=O)Cc1ccsc1 | inconclusive: -41.2% |
| C/C(=N\NC(=O)c1ccc(CN2CCOCC2)cc1)c1ccc([N+](=O)[O-])cc1 | inconclusive: -40.6% |
| C[C@H](O)[C@@H]1CN2CCc3ccc(-c4ccc5c(c4)OCO5)cc3[C@@H]2C[C@@H]1N(C)C(=O)C1CCCCC1 | inconclusive: -49.5% |
| CCOc1ccc2nc(SCC(=O)NCc3ccc(S(N)(=O)=O)cc3)[nH]c2c1 | inactive: 37.1% |
| C(=N\Nc1ncnc2sc3c(c12)CCC3)/c1ccncc1 | inconclusive: -56.3% |

| Compound | activity change, negative = inhibition |
| --- | --- |
| O=C(/C=C/c1ccc2ccccc2n1)N1CCN(S(=O)(=O)c2ccccc2F)CC1 | active: -96.8% |
| COc1ccccc1NS(=O)(=O)c1cccc(NC(=O)C2CC(=O)N(Cc3ccccc3)C2)c1 (stereo unspecified) | inactive: 2.92% |
| COc1cccc2c(Cl)c(CCCl)c(C)nc12 | active: -68.5% |
| COc1cc(NC(=S)Nc2ccccn2)cc(OC)c1 | inactive: 68.8% |
| CC1(C)NC(=O)N(CCSc2ccc(Cl)cc2)C1=O | inconclusive: -42.6% |
| COC(=O)/C=C/c1ccc(-n2cncn2)cc1 | inconclusive: -41.8% |
| CC(CN(C)C1CCN(C)CC1)c1ccccc1 (stereo unspecified) | inconclusive: -41.1% |
| Cc1ccc(-n2ncc3c2CC(C)(C)CC3NC(=O)CCCN2CCCCC2=O)cc1 (stereo unspecified) | inconclusive: -50.1% |
| Cc1ccc(S(=O)(=O)N(C)C)cc1NC(=O)c1c(-c2c(F)cccc2Cl)noc1C | inconclusive: -52% |
| Nc1ccc(Sc2cnn(-c3ccccc3)c(=O)c2Cl)cc1 | inconclusive: -49.1% |
| Cc1ccc(OCCC(=O)OC(C)C(=O)NC2CC2)cc1 (stereo unspecified) | inactive: -6.39% |
| CCOc1ccccc1N(CC(=O)Nc1ccccc1Br)S(=O)(=O)c1ccccc1 | active: -62.6% |
| CCOC(=O)C1CCN(C(=O)COc2cccc3ccccc23)CC1 | inactive: -33.6% |
| Cc1ccc(NC(=O)CN2C(=O)C3C4C=CC(C4)C3C2=O)cc1S(=O)(=O)N(C)C (stereo unspecified) | active: -103% |
| Cc1ccc(NC(=O)CCc2ccc(C)o2)c(C)c1 | inactive: 0% |
| O=C(NCCOC(=O)c1ccc([N+](=O)[O-])cc1)c1cccnc1 | inconclusive: -54.9% |
| CN(C)CCc1cc2c(c3c1ccc1ccccc13)OCO2 | inconclusive: -42.3% |
| Cn1c(Cn2c3ccccc3c3ccccc32)n[nH]c1=S | inconclusive: -46.1% |
| CCCCCC1CCC(c2nnc(SCC(C)=O)o2)CC1 (stereo unspecified) | active: -99.8% |
| COc1ccc(Cn2cc(CN3CC(N4CCN(C5CCN(C)CC5)CC4)CS3(=O)=O)nn2)cc1 (stereo unspecified) | inactive: -29.5% |
